Where two headings read alike, the source gives them in different places. These are yes or no findings as the source states them, for the method shown. In cells and extracts the contact can be indirect. Some entries that bind do so weakly or less than the wild type. Where a sequence is shown, tags or fusion partners need not be part of it.
Columns and labels:
Assay in all cases: co-IP; FLAG-MSL1 fragments coexpressed with HA-MOF, HA-MSL3 or both in Drosophila S2 cells; lysate on anti-FLAG M2 beads overnight at 4°C; three washes with 1 M NaCl, 1% NP40 buffer, final wash 150 mM; anti-HA western blot
[1] = biological target: T1, FLAG-tagged MSL1 fragment, residues 751-1,039, wild type (Drosophila) (UniProt P50535)
T1 sequence: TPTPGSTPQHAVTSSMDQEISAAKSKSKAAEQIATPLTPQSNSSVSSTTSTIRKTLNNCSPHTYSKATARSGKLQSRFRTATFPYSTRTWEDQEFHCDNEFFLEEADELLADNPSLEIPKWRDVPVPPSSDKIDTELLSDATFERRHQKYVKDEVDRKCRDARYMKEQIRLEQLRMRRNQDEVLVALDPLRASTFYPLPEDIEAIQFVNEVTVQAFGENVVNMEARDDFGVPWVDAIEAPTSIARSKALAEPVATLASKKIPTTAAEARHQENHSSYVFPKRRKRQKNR

Amino acid sequences for entries named in this document (tags omitted).
UniProt P50536: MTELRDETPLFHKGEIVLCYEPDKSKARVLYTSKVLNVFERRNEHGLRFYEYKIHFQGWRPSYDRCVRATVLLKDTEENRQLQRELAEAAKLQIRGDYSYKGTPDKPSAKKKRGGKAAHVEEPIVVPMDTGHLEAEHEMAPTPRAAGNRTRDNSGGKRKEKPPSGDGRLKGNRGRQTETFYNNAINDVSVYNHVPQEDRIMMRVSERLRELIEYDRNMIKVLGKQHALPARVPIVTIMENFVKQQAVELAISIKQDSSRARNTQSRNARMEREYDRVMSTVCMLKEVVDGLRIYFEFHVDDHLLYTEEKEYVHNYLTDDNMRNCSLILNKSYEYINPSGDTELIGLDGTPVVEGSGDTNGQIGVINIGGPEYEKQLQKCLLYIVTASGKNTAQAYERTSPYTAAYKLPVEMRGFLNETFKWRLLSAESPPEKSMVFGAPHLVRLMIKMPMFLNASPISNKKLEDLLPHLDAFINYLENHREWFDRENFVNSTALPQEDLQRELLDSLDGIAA

[2] = biological target: T2, FLAG-tagged MSL1 fragment from residue 751, K1009X truncation (Drosophila) (UniProt P50535)
T2 sequence: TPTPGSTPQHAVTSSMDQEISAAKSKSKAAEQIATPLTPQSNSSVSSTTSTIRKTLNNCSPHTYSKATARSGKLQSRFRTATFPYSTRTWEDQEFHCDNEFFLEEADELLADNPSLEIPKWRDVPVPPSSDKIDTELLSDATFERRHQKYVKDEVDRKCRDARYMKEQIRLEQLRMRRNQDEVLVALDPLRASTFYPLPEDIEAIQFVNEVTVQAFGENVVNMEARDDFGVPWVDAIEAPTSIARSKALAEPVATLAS

[3] = biological target: T3, FLAG-tagged MSL1 fragment, residues 751-1,039, AFG allele (AFG to EFF) (Drosophila) (UniProt P50535)
T3 sequence: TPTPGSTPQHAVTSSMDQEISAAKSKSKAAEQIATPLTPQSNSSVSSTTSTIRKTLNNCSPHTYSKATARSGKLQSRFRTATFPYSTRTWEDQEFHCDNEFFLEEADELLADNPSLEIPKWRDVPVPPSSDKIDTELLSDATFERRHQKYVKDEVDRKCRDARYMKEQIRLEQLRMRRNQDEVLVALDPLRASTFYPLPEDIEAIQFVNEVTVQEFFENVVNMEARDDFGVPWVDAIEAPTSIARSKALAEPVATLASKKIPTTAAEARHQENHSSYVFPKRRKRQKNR

[4] = biological target: T4, FLAG-tagged MSL1 fragment, residues 751-1,039, S943F (Drosophila) (UniProt P50535)
T4 sequence: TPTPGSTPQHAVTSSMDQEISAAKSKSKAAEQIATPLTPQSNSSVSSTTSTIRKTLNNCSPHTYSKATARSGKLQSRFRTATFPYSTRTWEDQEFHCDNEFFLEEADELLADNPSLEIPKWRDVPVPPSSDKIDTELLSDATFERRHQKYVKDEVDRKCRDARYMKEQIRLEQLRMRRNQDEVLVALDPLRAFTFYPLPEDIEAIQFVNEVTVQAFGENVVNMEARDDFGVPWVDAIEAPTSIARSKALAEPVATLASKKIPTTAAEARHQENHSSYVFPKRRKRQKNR

[5] = biological target: T5, FLAG-tagged MSL1 fragment, residues 751-1,039, P864L (Drosophila) (UniProt P50535)
T5 sequence: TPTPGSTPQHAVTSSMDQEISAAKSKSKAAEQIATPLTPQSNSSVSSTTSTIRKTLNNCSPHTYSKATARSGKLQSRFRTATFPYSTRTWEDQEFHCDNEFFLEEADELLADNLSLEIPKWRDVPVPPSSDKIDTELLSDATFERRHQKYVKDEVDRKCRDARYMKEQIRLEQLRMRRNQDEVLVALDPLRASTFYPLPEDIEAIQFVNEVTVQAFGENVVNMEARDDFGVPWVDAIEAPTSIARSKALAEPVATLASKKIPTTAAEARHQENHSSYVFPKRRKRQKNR

[6] = biological target: T1, FLAG-tagged MSL1 fragment, residues 751-1,039, wild type (Drosophila); remark: listed apart in the source
[7] = biological target: T2, FLAG-tagged MSL1 fragment from residue 751, K1009X truncation (Drosophila); remark: listed apart in the source
[8] = biological target: T3, FLAG-tagged MSL1 fragment, residues 751-1,039, AFG allele (AFG to EFF) (Drosophila); remark: listed apart in the source
[9] = biological target: T4, FLAG-tagged MSL1 fragment, residues 751-1,039, S943F (Drosophila); remark: listed apart in the source
[10] = biological target: T5, FLAG-tagged MSL1 fragment, residues 751-1,039, P864L (Drosophila); remark: listed apart in the source

Measured: binding

full-length haemagglutinin (HA)-MSL3 (from UniProt P50536 1-512)
binds: [1] | [2] | [3] | [4] | [5]

B1: full-length haemagglutinin (HA)-MOF ('males absent on first') (enzyme, UniProt O02193 1-827)
chain: MSEAELEQTPSAGHVQEQPIEEEHEPEQEPTDAYTIGGPPRTPVEDAAAELSASLDVSGSDQSAEQSLDLSGVQAEAAAESEPPAKRQHRDISPISEDSTPASSTSTSSTRSSSSSRYDDVSEAEEAPPEPEPEQPQQQQQEEKKEDGQDQVKSPGPVELEAQEPAQPQKQKEVVDQEIETEDEPSSDTVICVADINPYGSGSNIDDFVMDPDAPPNAIITEVVTIPAPLHLKGTQQLGLPLAAPPPPPPPPAAEQVPETPASPTDDGEEPPAVYLSPYIRSRYMQESTPGLPTRLAPRDPRQRNMPPPAVVLPIQTVLSANVEAISDDSSETSSSDDDEEEEEDEDDALTMEHDNTSRETVITTGDPLMQKIDISENPDKIYFIRREDGTVHRGQVLQSRTTENAAAPDEYYVHYVGLNRRLDGWVGRHRISDNADDLGGITVLPAPPLAPDQPSTSREMLAQQAAAAAAASSERQKRAANKDYYLSYCENSRYDYSDRKMTRYQKRRYDEINHVQKSHAELTATQAALEKEHESITKIKYIDKLQFGNYEIDTWYFSPFPEEYGKARTLYVCEYCLKYMRFRSSYAYHLHECDRRRPPGREIYRKGNISIYEVNGKEESLYCQLLCLMAKLFLDHKVLYFDMDPFLFYILCETDKEGSHIVGYFSKEKKSLENYNVACILVLPPHQRKGFGKLLIAFSYELSRKEGVIGSPEKPLSDLGRLSYRSYWAYTLLELMKTRCAPEQITIKELSEMSGITHDDIIYTLQSMKMIKYWKGQNVICVTSKTIQDHLQLPQFKQPKLTIDTDYLVWSPQTAAAVVRAPGNSG
binds: [6] | [7] | [8] | [9] | [10]

Reference: article PMC2893135
